PubChem BioAssay AID743456 – Peter MacCallum Cancer Centre | 2014

- Aim: 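Mimic library tested for viability and apoptosis changes under vorinostat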 (primary screen)
- System: human HCT116-VR colon cancer cells, a vorinostat-resistant HCT116 line
- Reagent: miRNA mimic
- Timing: about 3 days from transfection to readout; drug present for the last 24 h
- Challenge: vorinostat at 2.5 µM final for 24 h
- Measured: 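Cell viability from CellTiter-Fluor signal and caspase activity from luminescence after 24 h vorinostat at 2.5 µM, given as robust z-scores and as ratios to mock-transfected wells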
- Scale: viability robust z-score: higher = more viable cells; caspase robust z-score: higher = more caspase activity, more apoptosis
- Hit rule: 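Active when viability drops or caspase activity climbs beyond robust z thresholds, with wells of poor cell health excluded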
This is a random part of 878 reagents tested. Over the whole deposit, 27 (3.1%) got an active call. 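27 mimics are marked active, unlike an earlier stated count of 24; the viability threshold is described inconsistently.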 Further read-outs or replicates are left out here. Reagent sequences are not shown. The record does not give: the amount of reagent.

| miRNA | PubChem SID | viability robust z-score | caspase robust z-score | viability hit class | caspase hit class | call |
| --- | --- | --- | --- | --- | --- | --- |
| hsa-miR-610 | SID160648254 | -0.76 | 3.66 | no change | no change | inactive |
| hsa-miR-657 | SID160648310 | -1.54 | -0.97 | no change | no change | inactive |
| hsa-miR-449a | SID160648081 | -1.84 | 4.25 | no change | no change | inactive |
| hsa-miR-500* | SID160648167 | 0.08 | -0.76 | no change | no change | inactive |
| hsa-miR-1287 | SID160648631 | -1.02 | 3.48 | no change | no change | inactive |
| hsa-miR-548d-3p | SID160648299 | 1.36 | -0.66 | no change | no change | inactive |
| hsa-miR-1303 | SID160648644 | -0.68 | -0.08 | no change | no change | inactive |
| hsa-miR-1204 | SID160648735 | -0.9 | 2.2 | no change | no change | inactive |
| hsa-miR-1915* | SID160648733 | -0.07 | 1.74 | no change | no change | inactive |
| hsa-miR-138 | SID160647972 | -0.46 | 0.36 | no change | no change | inactive |
| hsa-miR-518e* | SID160648409 | 0.94 | 0.74 | no change | no change | inactive |
| hsa-miR-548m | SID160648670 | 0.04 | 0.15 | no change | no change | inactive |
| hsa-miR-106a | SID160647910 | 0.96 | 0.11 | no change | no change | inactive |
| hsa-miR-1243 | SID160648647 | -1.29 | 3.06 | no change | no change | inactive |
| hsa-miR-373 | SID160648038 | 0.52 | 2.04 | no change | no change | inactive |
| hsa-miR-122 | SID160647963 | -1.48 | 0.16 | no change | no change | inactive |
| hsa-miR-376a | SID160648041 | -0.82 | -0.82 | no change | no change | inactive |
| hsa-miR-345 | SID160648069 | -0.26 | 0.76 | no change | no change | inactive |
| hsa-miR-766 | SID160648325 | -3.14 | 0.54 | reduced viability | no change | active |
| hsa-miR-662 | SID160648301 | 0.42 | -0.84 | no change | no change | inactive |
| hsa-miR-541* | SID160648530 | 1.06 | -0.62 | no change | no change | inactive |
| hsa-miR-2052 | SID160648744 | 0.52 | 0.06 | no change | no change | inactive |
| hsa-miR-518e | SID160648159 | 0.52 | 2.36 | no change | no change | inactive |
| hsa-miR-1308 | SID160648700 | 0.2 | -0.72 | no change | no change | inactive |
| hsa-miR-19b-2* | SID160648444 | -0.72 | 0.32 | no change | no change | inactive |
| hsa-miR-1827 | SID160648713 | -1.92 | 1.84 | no change | no change | inactive |
| hsa-miR-646 | SID160648292 | -3.52 | 2.1 | reduced viability | no change | active |
| hsa-miR-154 | SID160647994 | -1.36 | 2.75 | no change | no change | inactive |
| hsa-miR-135a | SID160647970 | -0.03 | -0.77 | no change | no change | inactive |
| hsa-miR-1225-3p | SID160648577 | 0.23 | -0.46 | no change | no change | inactive |
| hsa-miR-197 | SID160647914 | -3.28 | 1.08 | reduced viability | no change | active |
| hsa-miR-1295 | SID160648638 | 0.66 | 0.13 | no change | no change | inactive |
| hsa-miR-1233 | SID160648585 | 0.05 | 3.62 | no change | no change | inactive |
| hsa-miR-421 | SID160648314 | -2.64 | 0.97 | no change | no change | inactive |

3 successive entries already listed, quoted:
| miRNA | PubChem SID | viability robust z-score | caspase robust z-score | viability hit class | caspase hit class | call |
| --- | --- | --- | --- | --- | --- | --- |
| hsa-miR-657 | SID160648310 | -1.54 | -0.97 | no change | no change | inactive |
| hsa-miR-449a | SID160648081 | -1.84 | 4.25 | no change | no change | inactive |
| hsa-miR-500* | SID160648167 | 0.08 | -0.76 | no change | no change | inactive |
